In article doi:10.1101/597153:
Changes are numbered by the printed parent chain. Results are given in words; binding and its absence hold for the method and conditions named. Binding seen in cells or lysates may run through a third protein. Some binding calls cover weakened binding; strength is not graded here. Sequences can lack the tags named with a protein.

By UniProt entry, the sequences of proteins in these tests, tags left out.
UniProt Q12778: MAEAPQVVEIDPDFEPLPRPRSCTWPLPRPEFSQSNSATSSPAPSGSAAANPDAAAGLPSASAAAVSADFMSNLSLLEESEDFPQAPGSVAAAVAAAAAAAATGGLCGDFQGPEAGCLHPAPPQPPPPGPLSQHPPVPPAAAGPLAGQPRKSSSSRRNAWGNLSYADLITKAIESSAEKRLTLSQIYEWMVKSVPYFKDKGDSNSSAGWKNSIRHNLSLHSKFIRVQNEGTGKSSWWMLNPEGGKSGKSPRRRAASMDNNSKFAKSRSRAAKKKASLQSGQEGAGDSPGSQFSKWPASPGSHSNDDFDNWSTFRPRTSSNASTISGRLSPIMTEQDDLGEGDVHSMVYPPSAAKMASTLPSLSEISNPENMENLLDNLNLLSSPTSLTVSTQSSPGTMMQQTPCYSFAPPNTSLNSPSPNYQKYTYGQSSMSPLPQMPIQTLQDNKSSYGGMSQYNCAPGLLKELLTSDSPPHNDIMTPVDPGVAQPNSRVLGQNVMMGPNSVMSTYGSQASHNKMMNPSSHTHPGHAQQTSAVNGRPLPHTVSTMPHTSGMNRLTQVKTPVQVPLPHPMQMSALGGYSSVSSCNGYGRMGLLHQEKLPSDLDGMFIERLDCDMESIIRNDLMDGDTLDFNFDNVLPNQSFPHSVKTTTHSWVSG

What was measured:
FLAG-SIRT1-mutE2 (mouse) = molecular target: T1, FLAG-SIRT1-mutE2 (mouse) (UniProt Q923E4); assay: co-IP
T1 sequence: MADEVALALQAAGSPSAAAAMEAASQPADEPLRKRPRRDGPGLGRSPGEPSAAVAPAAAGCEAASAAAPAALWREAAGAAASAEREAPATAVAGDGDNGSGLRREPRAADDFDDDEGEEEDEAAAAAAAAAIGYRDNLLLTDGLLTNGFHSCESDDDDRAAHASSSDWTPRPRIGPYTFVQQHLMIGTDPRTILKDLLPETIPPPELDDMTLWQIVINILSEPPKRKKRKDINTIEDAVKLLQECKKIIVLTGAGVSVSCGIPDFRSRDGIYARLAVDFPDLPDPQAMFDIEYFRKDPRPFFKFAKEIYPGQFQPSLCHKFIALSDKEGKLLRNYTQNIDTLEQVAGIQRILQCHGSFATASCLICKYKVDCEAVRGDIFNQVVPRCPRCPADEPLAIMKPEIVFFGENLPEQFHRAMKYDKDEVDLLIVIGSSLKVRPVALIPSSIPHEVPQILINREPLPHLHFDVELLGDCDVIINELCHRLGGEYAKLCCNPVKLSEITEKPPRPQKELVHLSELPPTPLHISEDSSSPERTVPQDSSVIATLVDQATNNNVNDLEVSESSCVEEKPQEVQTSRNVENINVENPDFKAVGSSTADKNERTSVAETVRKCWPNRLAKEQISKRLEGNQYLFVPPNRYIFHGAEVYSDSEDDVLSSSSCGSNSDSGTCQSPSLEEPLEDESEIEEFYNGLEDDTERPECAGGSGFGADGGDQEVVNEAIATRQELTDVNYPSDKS

FLAG-SIRT1-WT (mouse) = molecular target: T2, FLAG-SIRT1-WT (mouse) (UniProt Q923E4); assay: co-IP
T2 sequence: T1 sequence with A160T, A161S

binding (FLAG-SIRT1-mutE2 (mouse)): binds
binding (FLAG-SIRT1-WT (mouse)): binds
Substance: FOXO1 (from UniProt Q12778 1-655)
